# US20240083943A1 (IDP DISCOVERY PHARMA, S.L., priority 2020, published 2024)
# No end group written: not given here.
# Experiment: general procedure: Fmoc solid-phase peptide synthesis; Rink amide MBHA resin
# Details: whole synthesis
row,Sequence,final HPLC purity [%]
1,KASVMRLTISYLRV,96.42
2,KASVMRLTISYLRVR,96.65
3,LDKASVMRLTISYLRVRK,95.16
